Data on six molecules can be found in paper PMC9764255.

The chains behind the UniProt entries cited, without tags or fusion partners.
UniProt P29254: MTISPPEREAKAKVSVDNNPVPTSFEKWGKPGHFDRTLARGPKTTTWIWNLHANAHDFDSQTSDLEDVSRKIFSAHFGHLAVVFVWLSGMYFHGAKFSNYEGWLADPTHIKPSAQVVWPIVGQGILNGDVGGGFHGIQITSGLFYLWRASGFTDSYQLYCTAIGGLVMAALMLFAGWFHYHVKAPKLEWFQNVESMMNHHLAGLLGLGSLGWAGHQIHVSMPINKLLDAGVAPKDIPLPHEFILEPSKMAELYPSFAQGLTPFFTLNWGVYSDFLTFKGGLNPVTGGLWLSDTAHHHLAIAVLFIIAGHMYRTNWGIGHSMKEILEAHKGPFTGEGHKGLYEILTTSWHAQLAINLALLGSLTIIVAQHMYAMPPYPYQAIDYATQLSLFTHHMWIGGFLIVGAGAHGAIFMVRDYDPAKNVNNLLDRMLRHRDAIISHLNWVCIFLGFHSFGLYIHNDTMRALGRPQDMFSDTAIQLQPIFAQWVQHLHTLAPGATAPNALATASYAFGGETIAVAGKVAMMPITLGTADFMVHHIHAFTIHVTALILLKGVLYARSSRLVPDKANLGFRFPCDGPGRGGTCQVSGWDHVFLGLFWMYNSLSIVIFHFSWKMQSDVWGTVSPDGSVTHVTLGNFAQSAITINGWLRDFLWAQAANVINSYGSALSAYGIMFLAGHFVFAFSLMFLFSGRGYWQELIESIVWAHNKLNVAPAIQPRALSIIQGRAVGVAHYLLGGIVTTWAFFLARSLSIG
UniProt P29255: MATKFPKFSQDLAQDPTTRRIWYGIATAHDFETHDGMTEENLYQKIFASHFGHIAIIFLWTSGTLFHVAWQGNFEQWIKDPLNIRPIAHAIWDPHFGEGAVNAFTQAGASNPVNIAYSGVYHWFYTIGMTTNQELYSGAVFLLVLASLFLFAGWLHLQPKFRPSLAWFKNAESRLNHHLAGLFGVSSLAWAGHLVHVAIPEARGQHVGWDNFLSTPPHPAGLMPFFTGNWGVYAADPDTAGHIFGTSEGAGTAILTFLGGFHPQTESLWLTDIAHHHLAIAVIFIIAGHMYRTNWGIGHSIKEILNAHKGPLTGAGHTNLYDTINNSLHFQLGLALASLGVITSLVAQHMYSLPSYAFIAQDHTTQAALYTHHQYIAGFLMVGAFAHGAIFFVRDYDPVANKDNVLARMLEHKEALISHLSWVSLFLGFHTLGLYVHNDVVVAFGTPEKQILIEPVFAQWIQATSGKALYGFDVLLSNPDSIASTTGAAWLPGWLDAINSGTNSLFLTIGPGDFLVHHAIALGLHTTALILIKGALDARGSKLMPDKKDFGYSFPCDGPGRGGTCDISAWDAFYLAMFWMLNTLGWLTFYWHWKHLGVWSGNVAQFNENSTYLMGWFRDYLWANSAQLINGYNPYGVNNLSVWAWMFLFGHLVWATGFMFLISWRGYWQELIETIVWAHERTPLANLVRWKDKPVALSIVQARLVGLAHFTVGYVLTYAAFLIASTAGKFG

In assay [1] the target is T1, PsbO-APEX2 (Synechocystis sp. PCC6803) (UniProt P10549).
T1 sequence: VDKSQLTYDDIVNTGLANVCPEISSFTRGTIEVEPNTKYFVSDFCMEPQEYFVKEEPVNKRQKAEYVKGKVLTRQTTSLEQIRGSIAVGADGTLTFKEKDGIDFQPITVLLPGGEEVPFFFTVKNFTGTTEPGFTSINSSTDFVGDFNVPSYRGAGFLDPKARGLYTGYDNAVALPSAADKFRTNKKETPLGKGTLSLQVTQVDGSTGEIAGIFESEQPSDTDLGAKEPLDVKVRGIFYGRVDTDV
Nature of the assay: proximity labelling; PsbO-APEX2 knock-in Synechocystis cells, 2 mM biotin phenol 10 min at 30 °C, 2 mM H2O2 1 min; lysate denatured (methanol/chloroform, 0.1% SDS), streptavidin-agarose enrichment, on-bead trypsin digestion, label-free LC-MS/MS; hits filtered against three negative controls (no BP, WT, Zwf-APEX2), p < 0.05 and fold-change of two.

Assay [2] addresses T1, PsbO-APEX2 (Synechocystis sp. PCC6803). The assay is described as above. The source holds these as a separate data set.

Read-outs that look alike come from different tables or passages of the source. Results are given in words; binding and its absence hold for the method and conditions named. In cells and extracts the contact can be indirect. These calls come from enrichment with a bait or labelling near it, and not all partners need be listed. No binding means not detected with the bait.

In the case of PsaA (from UniProt P29254 1-751), in assay [1], the binding result is listed as “no binding”.

On to PsaB (from UniProt P29255 1-731), for which the binding entry in assay [1] is given as “no binding”.

B1: AtpG (protein, UniProt P27183 1-143)
chain: MFDFDATLPLMALQFVVLAFLLNAIFYKPMNKVLDERADYIRTNEEDARERLAKAKAITQEYEQQITDARRQSQAVIADAQAEARRLAAEKIAEAQRESQRQKETAAQEIEAQRQSALSSLEQEVAALSNQILHKLLGPELIK
Consider B1, for which, in assay [2], the binding entry is reported as “no binding”.

B2: FtsH1 (enzyme, UniProt P73179 1-665)
chain: MSHRPRSDRHSFSSPSRFWHRLGMGLLVAGTLALPVSTLAQEGGEGAQPKASPSPIQSPNSSNGEATPRSFFNSGSPRSAEPKMNYGQLIDAIKANQVAKVEVDTNRRQAIVTLKDAPPGSKPQTVQLLDNNPELLNLLRSRSETIDLDINRTPDNSALYGLLTNLLVVAILIGLVVMVVRRSANASGQAMSFGKSKARFQMEAKTGVGFDDVAGIDEAKEELQEVVTFLKQPEKFTAIGAKIPRGVLLIGPPGTGKTLLAKAIAGEAGVPFFSISGSEFVEMFVGVGASRVRDLFKKAKENAPCLVFIDEIDAVGRQRGVGYGGGNDEREQTLNQLLTEMDGFEGNSGIIVIAATNRPDVLDLALLRPGRFDRQVTVDYPDVQGRELILAIHAQNKKLHEEVQLAAIARRTPGFTGADLANVLNEAAIFTARRRKEAITMAEVNDAIDRVVAGMEGTPLVDSKSKRLIAYHEVGHALIGTLCPGHDPVEKVTLIPRGQAQGLTWFTPDEDQSLMTRNQMIARIAGLLGGRVAEEVIFGDDEVTTGAGNDIEKITYLARQMVTKLGMSSLGLVALEEEGDRNFSGGDWGKRSEYSEDIAARIDREIQAIVTAAHQRATRIIEENRNLMDLLVDALIDQETIEGEHFRQLVESYQQSQKQPALAGK
With B2, the binding result in assay [2] was “no binding”.

B3: PsaF (protein, UniProt P29256 24-165)
chain: DDFANLTPCSENPAYLAKSKNFLNTTNDPNSGKIRAERYASALCGPEGYPHLIVDGRFTHAGDFLIPSILFLYIAGWIGWVGRSYLIEIRESKNPEMQEVVINVPLAIKKMLGGFLWPLAAVGEYTSGKLVMKDSEIPTSPR
As for B3, in assay [2], the binding result is listed as “no binding”.

B4: AtpF (protein, UniProt P27181 1-179)
chain: MLNTLFILAAEAHEAGEGGFGINLDFLEANLFNLAILLGIIIYYAPKTLGKILGDRRQKIADAIEEAETRQRKSAQILAEEEKKLAQAKAEAARIVQEAGQRAEVAKQEIATQTEADLRRMQEAAAQDLGAEQERVIAELKRRIAEQAVAKAEADLRDRLNEDTQDRLIERSIAQLGGR
On to B4, for which the binding entry in assay [2] is “no binding”.
